Here are results for 62 molecules from the supplement of paper PMC3047530.

Some of the results follow. Most values come without repeats; read them as rough.

The test system of this assay is Geomyces destructans. In words: growth inhibition relative to DMSO control; higher = stronger growth inhibition. The note with it: 10 µM; 15 °C; incubation time 10 days.
Regarding `C/C=C/c1ccc(OC)cc1`, the growth inhibition is -3.77%. In the case of `C=C(C)[C@@H]1CC[C@]2(CO)CC[C@]3(C)[C@H](CC[C@@H]4[C@@]5(C)CC[C@H](O)C(C)(C)[C@@H]5CC[C@]43C)[C@@H]12` it was 3.12%; in that of `C=C1CCC(C2CC(=O)OC2=O)C(=O)CCC2C1CC2(C)C` (configuration not stated), -6.87%.

Take `O=C(O)c1cc(=O)c2c(Cl)cc(Cl)cc2[nH]1`: the growth inhibition was -1.58%. On to `Oc1cccc(O)c1`, for which the growth inhibition was -20.5%. For `Cc1cc(O)cc(C)c1Cl` the value was 0.363%. In the case of `CC(N)CCCC(C)(C)O` (configuration not stated) it was -7.24%; in that of `CC(C)OC(=O)C(C)(C)Oc1ccc(C(=O)c2ccc(Cl)cc2)cc1`, -28.9%. In the case of `COc1ccccc1/C=C/C(=O)O` it was -0.393%; in that of `NC(=O)CC[C@H](N)C(=O)O`, -2.89%; in that of `O=c1oc2cc(O)ccc2s1`, -0.218%. In the case of `CC(=O)Oc1cc(-c2coc3cc(OC(C)=O)c(OC(C)=O)c(OC(C)=O)c3c2=O)cc(OC(C)=O)c1OC(C)=O`, the growth inhibition stood at 2.6%. For `c1coc(CNc2ncnc3[nH]cnc23)c1` the value was -18.2%; for `O=C(O)c1cc(/N=N/c2ccc(S(=O)(=O)Nc3ccccn3)cc2)ccc1O`, -4.54%. In the case of `C[C@@H]1[C@H]2[C@H](O[C@@H]3O[C@H](CO)[C@@H](O)[C@H](O)[C@H]3O)OC=C(C(=O)O)[C@H]2C[C@@H]1O` it was -14.7%; in that of `CC(=O)O[C@@H]1C=C[C@]2(C)C(C[C@@H](OC(C)=O)[C@]3(C)C4=CC(=O)O[C@H](c5ccoc5)[C@@]4(C)CCC23)C1(C)C` (some centres not stated), -0.395%; in that of `O=C(O)c1cc2cc(Cc3cccnc3)ccc2o1`, 1.62%. For `N[C@@H](CSCSC[C@H](N)C(=O)O)C(=O)O` the value was -1.57%. `CN/C(=N\CCSCc1nc[nH]c1C)NC#N`: the growth inhibition came to 0.983%. As for `Cc1cc(C(C)(C)C)c(O)c(C(C)(C)C)c1`, the growth inhibition turned out to be 3.82%.

Consider `Cn1c(=O)[nH]c2ncn(C)c2c1=O`, for which the growth inhibition was -26.4%. Consider `O=C(O)c1cn(C2CC2)c2cc(N3CCNCC3)c(F)cc2c1=O`, for which the growth inhibition is -6.38%.

Turning to `CC1(C)C(O)CC(=O)C2(C)C1CC(O)C1(C)C2CCC2(C)C(c3ccoc3)OC(=O)C3OC321` (configuration not stated), the growth inhibition was -4.75%. For `CC(=O)[C@@]1(O)CC[C@H]2[C@@H]3C[C@H](C)C4=CC(=O)C=C[C@]4(C)[C@@]3(F)[C@@H](O)C[C@@]21C` the value was 4.06%. In the case of `CCc1nc(N)nc(N)c1-c1ccc(Cl)cc1`, the growth inhibition was -5.2%.

Regarding `COC(=O)CCCOc1ccc(Cl)cc1Cl`, the growth inhibition is -6.37%. As for `CC(C)c1c(O)c(-c2cc3c(c(C(C)C)c2O)CCC2C(C)(C)CCC[C@]32C)cc2c1CCC1C(C)(C)CCC[C@]21C` (some centres not stated), the growth inhibition is -4.06%. For `C1CCC(C(CC2CCCCN2)C2CCCCC2)CC1` (configuration not stated) the value was -2.05%; for `O=c1cc(CO)occ1O`, -9.28%. For `C[C@@H]1CC[C@H]2[C@](C)(CO)[C@@H](O)CC[C@]2(C)[C@@]12CC[C@@](CO)(CCO)O2` the value was -6.9%; for `CC1(C)C=Cc2c(cc3occ(-c4ccc5c(c4)OCO5)c(=O)c3c2O)O1`, 1.65%. For `COc1ccc2c(c1)OC/C(=C/c1ccc(OC)c(OC)c1)C2=O` the value was -3.93%. For `O=C(O)C1CC([C@@H]2CCCCN2)CN2CCCCC12` (some centres not stated), the growth inhibition is -1.12%. For `COc1cc(C(=O)NCc2ccc(OCCN(C)C)cc2)cc(OC)c1OC` the value was -14.9%; for `COc1c(CC=C(C)C)c2c(c3oc(=O)c(-c4ccc(OC(C)=O)cc4)c(OC(C)=O)c13)C=CC(C)(C)O2`, -1.02%; for `C[C@](N)(Cc1ccc(O)c(O)c1)C(=O)O`, -8.53%. Take `O=C1c2ccc(O)cc2OC(c2cc(O)c(O)c(O)c2)C1O` (stereo in doubt): the growth inhibition is -3.05%. For `C=CC(C1=CC(=O)C(OC)=CC1=O)c1ccccc1` (configuration not stated) the value was 4.18%; for `C[C@H]1c2cccc(O)c2C(=O)C2=C(O)[C@]3(O)C(=O)C(C(N)=O)=C(O)[C@@H](N(C)C)[C@@H]3[C@@H](O)[C@@H]21`, 3.82%; for `CC1(C)CC2C1(O)CCC1(C)C=CC(O)C21CO` (configuration not stated), -19.1%. In the case of `COc1c(CC(=O)c2cc3c(cc2O)OC(C)(C)C(O)C3)ccc2c1C=CC(C)(C)O2` (configuration not stated) it was 0.0787%; in that of `CC[C@H]1C(=O)OC[C@@H]1Cc1cncn1C`, -0.882%. In the case of `Cc1onc(-c2ccccc2Cl)c1C(=O)N[C@@H]1C(=O)N2[C@@H]1SC(C)(C)[C@@H]2C(=O)O` it was -1.84%.

Consider `CN[C@H](CC(=O)O)C(=O)O`, for which the growth inhibition was -12.5%.

Turning to `NS(=O)(=O)c1cc2c(cc1Cl)NC(C(Cl)Cl)NS2(=O)=O` (configuration not stated), the growth inhibition was -24.9%.

On to `CCC[C@H]1CC2=C(C[C@@H](CC)CC3=C1C(=O)OC3=O)C(=O)OC2=O`, for which the growth inhibition was -24.3%. For `CN[C@@H]1[C@H](O)[C@H](NC)[C@H]2O[C@@]3(O)C(=O)C[C@@H](C)O[C@H]3O[C@@H]2[C@H]1O` the value was -9.36%; for `CC(C)CCC[C@@H](C)[C@H]1CC[C@H]2[C@@H]3CC(=O)[C@H]4C[C@@H](O)CC[C@]4(C)[C@H]3CC[C@]12C` [5alpha-CHOLESTAN-3beta-OL-6-ONE], -3.46%; for `NCCCC(=O)O` [gamma-AMINOBUTYRIC ACID], -14%. Consider `CC(=O)O[C@@H]1CC2C(C)(C)C(=O)[C@@H]3O[C@@H]3[C@]2(C)C2CC[C@]3(C)C(=CC(=O)O[C@H]3c3ccoc3)[C@@]21C` (stereo partly drawn) [1 (2)alpha-EPOXYDEOXYDIHYDROGEDUNIN], for which the growth inhibition is 1.89%.

Consider `NC(=O)NCC(N)C(=O)O` (configuration not stated), for which the growth inhibition was 5.16%.

For the molecule `CC(=O)Oc1cc(OC(C)=O)c2c(c1)O[C@H](c1ccc(OC(C)=O)c(OC(C)=O)c1)[C@@H](OC(C)=O)C2`, the growth inhibition is -3.24%.

Consider `N=c1[nH]c(=O)c2[nH]c(=O)c(=O)[nH]c2[nH]1`, for which the growth inhibition is -9.66%. For `C[C@@H]1NC(=O)[C@@H](N)CNC(=O)[C@H](C2CCNC(=N)N2)NC(=O)/C(=C/NC(N)=O)NC(=O)[C@H](CNC(=O)CC(N)CCCN)NC1=O.N=C1NCC[C@H]([C@@H]2NC(=O)/C(=C/NC(N)=O)NC(=O)[C@H](CNC(=O)C[C@@H](N)CCCN)NC(=O)[C@H](CO)NC(=O)[C@@H](N)CNC2=O)N1` the value was -4.77%; for `C=C[C@@](C)(O)CCC1C(=C)CCC2[C@@](C)(CO)CCC[C@]12C` (some centres not stated), -18.4%. In the case of `NC/C=C/C(=O)O` it was -34.3%.

As to `C[n+]1c2cc(N)ccc2cc2ccc(N)cc21`, the growth inhibition was -24.9%. For `COc1ccc(-c2coc3cc(OC)ccc3c2=O)cc1` the value was 17.6%; for `C=C(C)C1(O)OC(=O)C=C1OC` (configuration not stated), -12.2%; for `O=C(N[C@H](CO)[C@H](O)c1ccc([N+](=O)[O-])cc1)C(Cl)Cl`, -12.5%.

Take `O=C(O)CCNC(=O)c1ccccc1`: the growth inhibition is -34.1%. For `CCC[C@@H]1C[C@@H](C(=O)N[C@@H]([C@H]2O[C@H](SC)[C@H](O)[C@@H](O)[C@H]2O)[C@H](C)Cl)N(C)C1` the value was -4.04%.
